Experimental data: patent publication US20140088069A1, “NOVEL ANTIBACTERIAL COMBINATION THERAPY” (priority 2011, published 2014)
Some of these results come from one statement about several compounds together.

System: CA-MRSA USA300
Details: library compound 10 μM with cefuroxime; MHB, 2% DMSO, 37° C., 20 hours, OD 600 nm

Compound	inhibiting the growth of CA-MRSA USA 300
CN1[C@@H]2CC[C@H]1C[C@@H](OC(c1ccccc1)c1ccccc1)C2 [Benztropine]	more than 80%
CN(C)CCC(c1ccc(Cl)cc1)c1ccccn1 (centres unmarked) [chlorpheniramine]	more than 80%
